In patent US20160289321A1:
No constants are given. Whether binding was seen depends on the method and setting. Some results given as binding are weak or reduced against the parent protein; the word gives no strength.

B1: Hu049-17 (antibody, V domains shown)
VH: EVQLVQSGAEVKKPGASVKVSCKASGYTFTDYEVHWVRQAPGQGLEWMGVIDPGTGGVAYNQKFEGRVTMTTDTSTSTAYMELRSLRSDDTAVYYCTRYSLFYGSSPYAMDYWGQGTLVTVSS
VL: EIVLTQSPDFQSVTPKEKVTITCSASSSVNYMHWFQQKPDQSPKLWIYRTSNLASGVPSRFSGSGSGTDYTLTINSLEAEDAATYYCQQRSSYPWTFGQGTKLEIKR
B2: Hu049-19 (antibody, V domains shown)
VH: EVQLVQSGAEVKKPGASVKVSCKASGYTFTDYEVHWVRQAPGQGLEWIGVIDPGTGGVAYNQKFEGRVTMTADTSTSTAYMELRSLRSDDTAVYYCTRYSLFYGSSPYAMDYWGQGTLVTVSS
VL: EIVLTQSPDFQSVTPKEKVTITCSASSSVNYMHWFQQKPDQSPKLWIYRTSNLASGVPSRFSGSGSGTDYTLTINSLEAEDAATYYCQQRSSYPWTFGQGTKLEIKR
B3: Hu049-18 (antibody, V domains shown)
VH: EVQLVQSGAEVKKPGASVKVSCKASGYTFTDYEVHWVRQAPGQGLEWMGVIDPGTGGVAYNQKFEGRVTMTADTSTSTAYMELRSLRSDDTAVYYCTRYSLFYGSSPYAMDYWGQGTLVTVSS
VL: EIVLTQSPDFQSVTPKEKVTITCSASSSVNYMHWFQQKPDQSPKLWIYRTSNLASGVPSRFSGSGSGTDYTLTINSLEAEDAATYYCQQRSSYPWTFGQGTKLEIKR
B4: Hu049-20 (antibody, V domains shown)
VH: EVQLVQSGAEVKKPGASVKVSCKASGYTFTDYEVHWVRQAPGQGLEWIGVIDPGTGGVAYNQKFEGRATLTADDSTNTAYMELRSLRSDDTAVYYCTRYSLFYGSSPYAMDYWGQGTLVTVSS
VL: EIVLTQSPDFQSVTPKEKVTITCSASSSVNYMHWFQQKPDQSPKLWIYRTSNLASGVPSRFSGSGSGTDYTLTINSLEAEDAATYYCQQRSSYPWTFGQGTKLEIKR

What follows are binders tested against Cyno IL-17A (cynomolgus) (assay: told from the Hs27 GROα bioassay, not a direct binding assay).

binding, binds:
B1
B2
B3
B4
